These are yes or no findings as the source states them, for the method shown. Binding seen in cells or lysates may run through a third protein. Some binding calls cover weakened binding; strength is not graded here. Where a sequence is shown, tags or fusion partners need not be part of it. Blank lines part the entries; values can stand above or below the binder they belong to.
Columns and labels:
[1] = molecular target: T1, ProtA-Noc4p lacking Domain 1 to 5 (the 237 C-terminal amino acids of Noc4p) (S. cerevisiae) (UniProt Q06512); assay: co-IP; ProtA-Noc4p variants affinity purified on IgG-Sepharose from extracts of yeast ToY489 after 16 h on glucose to shut off wild-type NOC4; buffer A200 (200 mM KCl, 20 mM Tris pH 8.0, 5 mM MgAc, 1 mM DTT), 4°C; Nop14p-HA detected by Western blot with anti-HA
T1 sequence: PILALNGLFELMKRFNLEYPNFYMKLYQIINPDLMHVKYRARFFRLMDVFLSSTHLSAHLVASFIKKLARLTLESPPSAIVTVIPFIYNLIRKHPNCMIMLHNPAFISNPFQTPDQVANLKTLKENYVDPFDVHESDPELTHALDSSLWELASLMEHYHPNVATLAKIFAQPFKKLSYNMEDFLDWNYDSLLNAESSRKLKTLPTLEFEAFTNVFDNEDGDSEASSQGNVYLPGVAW

[2] = molecular target: T2, full length ProtA-Noc4p (S. cerevisiae) (UniProt Q06512); assay: as above
T2 sequence: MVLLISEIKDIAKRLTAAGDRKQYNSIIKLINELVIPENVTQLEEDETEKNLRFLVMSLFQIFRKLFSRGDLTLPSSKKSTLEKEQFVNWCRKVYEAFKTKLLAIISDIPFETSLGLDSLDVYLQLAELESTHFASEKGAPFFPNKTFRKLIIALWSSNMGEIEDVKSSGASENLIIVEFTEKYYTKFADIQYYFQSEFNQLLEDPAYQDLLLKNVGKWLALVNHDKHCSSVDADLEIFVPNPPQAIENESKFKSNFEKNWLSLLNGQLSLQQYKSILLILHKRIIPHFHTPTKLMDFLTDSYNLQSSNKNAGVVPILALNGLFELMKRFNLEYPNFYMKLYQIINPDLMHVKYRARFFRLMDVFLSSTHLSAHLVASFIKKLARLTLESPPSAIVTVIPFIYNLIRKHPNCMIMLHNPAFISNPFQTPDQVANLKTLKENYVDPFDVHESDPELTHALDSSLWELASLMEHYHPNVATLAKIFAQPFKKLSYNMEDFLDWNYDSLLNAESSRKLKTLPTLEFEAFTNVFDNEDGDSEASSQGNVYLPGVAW

[3] = molecular target: T3, ProtA-Noc4p lacking Domain 1 (S. cerevisiae) (UniProt Q06512); assay: as above
T3 sequence: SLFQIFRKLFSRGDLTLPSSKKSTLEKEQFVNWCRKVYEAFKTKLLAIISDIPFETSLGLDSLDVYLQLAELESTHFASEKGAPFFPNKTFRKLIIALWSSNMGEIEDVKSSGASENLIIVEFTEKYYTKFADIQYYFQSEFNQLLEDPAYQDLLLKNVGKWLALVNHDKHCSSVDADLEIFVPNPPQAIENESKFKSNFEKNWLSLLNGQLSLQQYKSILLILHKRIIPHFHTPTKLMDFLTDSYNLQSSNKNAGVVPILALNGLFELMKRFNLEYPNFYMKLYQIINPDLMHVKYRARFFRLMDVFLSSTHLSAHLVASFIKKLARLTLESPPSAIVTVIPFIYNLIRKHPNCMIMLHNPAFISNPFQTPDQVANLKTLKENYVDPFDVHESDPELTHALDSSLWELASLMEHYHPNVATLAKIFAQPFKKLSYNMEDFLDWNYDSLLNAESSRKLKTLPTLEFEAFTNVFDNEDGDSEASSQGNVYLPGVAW

[4] = molecular target: T4, Nop14p-HA (S. cerevisiae) (UniProt Q99207); assay: co-IP; HA-tagged Nop14p immunoprecipitated with anti HA antibodies from the corresponding yeast cell extracts; co-precipitated Noc4p variants analysed (Fig. S1B)
T4 sequence: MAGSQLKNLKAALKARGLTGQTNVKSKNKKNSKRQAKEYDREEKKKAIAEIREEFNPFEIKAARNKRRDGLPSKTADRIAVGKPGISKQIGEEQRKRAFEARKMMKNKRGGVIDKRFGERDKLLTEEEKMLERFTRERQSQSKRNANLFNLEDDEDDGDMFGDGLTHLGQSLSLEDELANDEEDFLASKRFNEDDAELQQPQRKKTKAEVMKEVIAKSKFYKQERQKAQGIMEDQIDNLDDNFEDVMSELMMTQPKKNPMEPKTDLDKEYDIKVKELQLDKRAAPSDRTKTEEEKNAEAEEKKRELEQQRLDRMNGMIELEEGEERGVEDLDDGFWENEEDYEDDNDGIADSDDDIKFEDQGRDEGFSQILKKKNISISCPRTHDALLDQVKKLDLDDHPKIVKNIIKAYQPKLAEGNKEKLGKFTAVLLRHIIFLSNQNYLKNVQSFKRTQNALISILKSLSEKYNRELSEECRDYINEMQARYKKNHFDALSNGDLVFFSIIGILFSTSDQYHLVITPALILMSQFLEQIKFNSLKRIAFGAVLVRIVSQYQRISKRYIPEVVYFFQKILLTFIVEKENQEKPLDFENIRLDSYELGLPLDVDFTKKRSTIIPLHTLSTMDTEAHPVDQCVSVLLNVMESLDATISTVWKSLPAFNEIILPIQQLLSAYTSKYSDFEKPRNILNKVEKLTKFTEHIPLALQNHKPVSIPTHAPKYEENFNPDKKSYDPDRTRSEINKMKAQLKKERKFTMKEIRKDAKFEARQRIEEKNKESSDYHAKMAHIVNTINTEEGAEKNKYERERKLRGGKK

[5] = molecular target: T5, Flag-noc4-dD1-D5 (S. cerevisiae) (UniProt Q06512); assay: co-IP; Flag-Noc4p variants co-expressed with HIS6-Nop14p in SF21 insect cells (MultiBac baculovirus, 48 h); immunoprecipitated on M2 anti-Flag agarose from the lysate (50 mM Tris/HCl pH 7.5, 100 mM NaCl, 5 mM MgCl2, 0.15% NP40), eluted with Flag-peptide; Western blot with His probe
T5 sequence: T1 sequence

[6] = molecular target: T6, Flag-tagged full length Noc4p (S. cerevisiae) (UniProt Q06512); assay: as above
T6 sequence: T2 sequence

- binding [1]: binds
- binding [2]: binds
- binding [3]: binds
B1: Nop14p-HA (protein, UniProt Q99207 1-810)
chain: T4 sequence

- binding [4]: binds
B3: ProtA-Noc4p lacking Domain 1 to 5 (the 237 C-terminal amino acids of Noc4p) (domain or fragment, UniProt Q06512 316-552)
chain: T1 sequence

The next lines start with the binder.

B2: ProtA-Noc4p lacking Domain 1 (domain or fragment, UniProt Q06512 58-552)
chain: T3 sequence
- binding [4]: binds

B4: HIS6-Nop14p (protein, UniProt Q99207 1-810)
chain: T4 sequence
- binding [5]: binds
- binding [6]: binds

B5: full length ProtA-Noc4p (protein, UniProt Q06512 1-552)
chain: T2 sequence
- binding [4]: binds

Reference: paper PMC2794458
